Data as given in patent EP0786470A1, “PEPTIDE COMPOUND” (SEIKAGAKU KOGYO KABUSHIKI KAISHA, priority 1993, dated 1997).

Test system: Wistar rats
Settings: intracerebral administration alone; site not specified

Structure (SMILES): NCCCC(=O)O [γ-aminobutyric acid]
- dose required to obtain the inhibition effect, in comparison with the dose of the peptide compound of the present invention: ≥ 80 times
